# Results: paper PMC4079752 (Clinical cancer research : an official journal of the …, 2014)
# The chains behind the UniProt entries cited, without tags or fusion partners. Where a name states a change or a piece, a line headed by the entry shows the natural chain unless it says otherwise.
# UniProt P05804: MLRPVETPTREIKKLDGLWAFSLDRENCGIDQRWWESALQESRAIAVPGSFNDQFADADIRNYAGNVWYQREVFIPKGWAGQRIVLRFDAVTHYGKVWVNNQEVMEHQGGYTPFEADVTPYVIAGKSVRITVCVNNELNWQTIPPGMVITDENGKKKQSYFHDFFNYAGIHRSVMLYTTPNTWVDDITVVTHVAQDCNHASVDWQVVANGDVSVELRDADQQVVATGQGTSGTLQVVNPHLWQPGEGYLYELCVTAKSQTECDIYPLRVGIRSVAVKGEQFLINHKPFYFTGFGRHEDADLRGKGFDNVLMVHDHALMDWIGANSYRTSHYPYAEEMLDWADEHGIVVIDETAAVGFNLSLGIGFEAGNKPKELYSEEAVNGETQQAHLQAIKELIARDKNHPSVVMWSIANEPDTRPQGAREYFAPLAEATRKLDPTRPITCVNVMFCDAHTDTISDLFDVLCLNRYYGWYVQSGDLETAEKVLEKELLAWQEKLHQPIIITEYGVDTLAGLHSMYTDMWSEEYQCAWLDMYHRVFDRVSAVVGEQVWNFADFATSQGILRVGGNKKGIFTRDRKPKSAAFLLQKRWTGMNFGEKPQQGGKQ
# Molecular target: bacterial β-glucuronidase (E. coli GUS) (Escherichia coli, UniProt P05804)
# Experiment: GUS enzyme activity assay with purified enzyme
# Type: biochemical
compound,measurement,value
"Clc1ccc2c(c1)C(N1CCNCC1)=Nc1ccccc1O2 [AMOX, amoxapine]",IC50,796 ± 29 nM
